# According to publication PMC6693180:
# Amino acid sequences for entries named in this document (tags omitted).
# UniProt Q9NZJ0: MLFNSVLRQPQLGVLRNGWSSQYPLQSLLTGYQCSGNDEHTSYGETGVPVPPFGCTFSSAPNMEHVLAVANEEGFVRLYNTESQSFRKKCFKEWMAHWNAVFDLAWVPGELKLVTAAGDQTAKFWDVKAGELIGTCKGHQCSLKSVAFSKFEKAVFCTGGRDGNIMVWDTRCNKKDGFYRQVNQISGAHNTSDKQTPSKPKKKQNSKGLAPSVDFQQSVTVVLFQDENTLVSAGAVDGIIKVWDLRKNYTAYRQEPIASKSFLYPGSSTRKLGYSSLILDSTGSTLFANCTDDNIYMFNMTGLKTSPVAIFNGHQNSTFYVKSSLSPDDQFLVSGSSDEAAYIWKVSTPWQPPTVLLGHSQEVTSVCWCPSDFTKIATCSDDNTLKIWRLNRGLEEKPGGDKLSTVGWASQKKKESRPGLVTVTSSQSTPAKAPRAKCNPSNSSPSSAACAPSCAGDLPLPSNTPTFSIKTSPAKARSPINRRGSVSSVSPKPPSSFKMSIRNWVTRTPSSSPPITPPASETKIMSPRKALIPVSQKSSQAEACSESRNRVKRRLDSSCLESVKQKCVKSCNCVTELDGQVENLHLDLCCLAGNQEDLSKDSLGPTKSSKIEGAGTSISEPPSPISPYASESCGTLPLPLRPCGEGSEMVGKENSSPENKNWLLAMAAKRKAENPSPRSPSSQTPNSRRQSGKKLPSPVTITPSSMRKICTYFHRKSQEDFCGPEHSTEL
# Results are given in words; binding and its absence hold for the method and conditions named. In cells and extracts the contact can be indirect. Some results given as binding are weak or reduced against the parent protein; the word gives no strength. For some of these results: Tags and fused reporters may be left off the sequences shown.
# T1: PDCD4 in H1650 cells (human (endogenous in H1650)) (UniProt Q53EL6)
# T1 sequence: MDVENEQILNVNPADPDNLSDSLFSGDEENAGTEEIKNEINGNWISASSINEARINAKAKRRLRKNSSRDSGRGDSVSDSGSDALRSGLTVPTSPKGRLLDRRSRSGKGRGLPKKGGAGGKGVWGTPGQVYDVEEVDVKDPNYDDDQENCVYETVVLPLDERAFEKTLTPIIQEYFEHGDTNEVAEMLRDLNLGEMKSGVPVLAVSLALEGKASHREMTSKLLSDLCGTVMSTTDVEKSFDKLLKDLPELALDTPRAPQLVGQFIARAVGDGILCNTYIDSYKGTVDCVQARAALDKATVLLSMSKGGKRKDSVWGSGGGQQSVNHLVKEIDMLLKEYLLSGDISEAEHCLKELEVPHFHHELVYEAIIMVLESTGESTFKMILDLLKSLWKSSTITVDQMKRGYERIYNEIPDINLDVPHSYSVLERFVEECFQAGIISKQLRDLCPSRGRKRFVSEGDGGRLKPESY
# T2: Programmed cell death 4 (PDCD4) (human (endogenous in 293T)) (UniProt Q53EL6)
# T2 sequence: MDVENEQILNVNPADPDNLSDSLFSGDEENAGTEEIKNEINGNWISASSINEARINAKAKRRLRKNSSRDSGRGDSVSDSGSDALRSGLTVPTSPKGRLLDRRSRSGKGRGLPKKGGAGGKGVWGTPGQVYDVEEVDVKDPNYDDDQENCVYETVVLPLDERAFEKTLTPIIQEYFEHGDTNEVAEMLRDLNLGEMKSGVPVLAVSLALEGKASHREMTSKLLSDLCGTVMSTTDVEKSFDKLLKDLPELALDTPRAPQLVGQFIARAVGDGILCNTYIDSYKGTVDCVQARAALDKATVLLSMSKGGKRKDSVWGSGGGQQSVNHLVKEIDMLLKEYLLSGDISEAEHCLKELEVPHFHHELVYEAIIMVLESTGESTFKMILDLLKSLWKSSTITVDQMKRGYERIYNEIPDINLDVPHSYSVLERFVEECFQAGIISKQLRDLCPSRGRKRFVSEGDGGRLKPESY
# T3: His-PDCD4(S67A) (human) (UniProt Q53EL6)
# T3 sequence: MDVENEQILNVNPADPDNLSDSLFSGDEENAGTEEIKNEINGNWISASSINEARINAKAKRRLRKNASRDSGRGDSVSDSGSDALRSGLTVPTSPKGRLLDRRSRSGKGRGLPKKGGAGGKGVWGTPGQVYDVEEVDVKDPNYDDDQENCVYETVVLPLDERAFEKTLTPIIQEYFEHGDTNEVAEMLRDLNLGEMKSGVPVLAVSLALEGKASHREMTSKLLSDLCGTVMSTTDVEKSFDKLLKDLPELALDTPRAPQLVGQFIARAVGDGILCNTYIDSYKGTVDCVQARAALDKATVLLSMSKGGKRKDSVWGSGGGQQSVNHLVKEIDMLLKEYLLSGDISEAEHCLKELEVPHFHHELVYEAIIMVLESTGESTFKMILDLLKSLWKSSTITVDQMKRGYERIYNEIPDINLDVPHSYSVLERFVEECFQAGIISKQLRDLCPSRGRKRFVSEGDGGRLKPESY
# Tests used:
# [1] = biological target: T1, PDCD4 in H1650 cells (human (endogenous in H1650)); assay: co-IP; H1650 lung cancer cell lysate
# [2] = biological target: T2, Programmed cell death 4 (PDCD4) (human (endogenous in 293T)); assay: co-IP; endogenous proteins; 293T lysates prepared by weak RIPA lysis; precipitated by DTL antibody (IgG as negative control) or by PDCD4 antibody
# His-PDCD4(S67A) (human) = biological target: T3, His-PDCD4(S67A) (human); assay: co-IP; HA-DTL, His-PDCD4 and His-PDCD4(S67A) transfected into 293T; precipitated with His tag antibodies
# [3] = biological target: Endogenous DTL (human (endogenous in 293T)) (UniProt Q9NZJ0); assay: co-IP; endogenous proteins; 293T lysates prepared by weak RIPA lysis; precipitated by DTL antibody (IgG as negative control) or by PDCD4 antibody
molecule,measurement,setting,value
DTL in H1650 cells (from UniProt Q9NZJ0 1-730),binding,[1],binds
Endogenous DTL (from UniProt Q9NZJ0 1-730),binding,[2],binds
HA-DTL (from UniProt Q9NZJ0 1-730),binding,His-PDCD4(S67A) (human),no binding
"Programmed cell death 4 (PDCD4) (protein, UniProt Q53EL6 1-469) MDVENEQILNVNPADPDNLSDSLFSGDEENAGTEEIKNEINGNWISASSINEARINAKAKRRLRKNSSRDSGRGDSVSDSGSDALRSGLTVPTSPKGRLLDRRSRSGKGRGLPKKGGAGGKGVWGTPGQVYDVEEVDVKDPNYDDDQENCVYETVVLPLDERAFEKTLTPIIQEYFEHGDTNEVAEMLRDLNLGEMKSGVPVLAVSLALEGKASHREMTSKLLSDLCGTVMSTTDVEKSFDKLLKDLPELALDTPRAPQLVGQFIARAVGDGILCNTYIDSYKGTVDCVQARAALDKATVLLSMSKGGKRKDSVWGSGGGQQSVNHLVKEIDMLLKEYLLSGDISEAEHCLKELEVPHFHHELVYEAIIMVLESTGESTFKMILDLLKSLWKSSTITVDQMKRGYERIYNEIPDINLDVPHSYSVLERFVEECFQAGIISKQLRDLCPSRGRKRFVSEGDGGRLKPESY",binding,[3],binds
